Tested on: K562 cells (Human, CML)
Test: cells
Details: K562, read-out: IC50, decrease in the number of K562 cells

Cc1ccc(NC(=O)c2ccc(CN3CCN(C)CC3)cc2)cc1Nc1nccc(-c2cccnc2)n1 [GLEEVEC, reference compound]
IC50: ~175 nM
